# Assay results from the supplement of paper PMC12823440, “Inhibitors supercharge kinase turnover through native proteolytic circuits” (Nature, 2025).
# The chains behind the UniProt entries cited, without tags or fusion partners. Where a name states a change or a piece, a line headed by the entry shows the natural chain unless it says otherwise.
# UniProt Q9UM73: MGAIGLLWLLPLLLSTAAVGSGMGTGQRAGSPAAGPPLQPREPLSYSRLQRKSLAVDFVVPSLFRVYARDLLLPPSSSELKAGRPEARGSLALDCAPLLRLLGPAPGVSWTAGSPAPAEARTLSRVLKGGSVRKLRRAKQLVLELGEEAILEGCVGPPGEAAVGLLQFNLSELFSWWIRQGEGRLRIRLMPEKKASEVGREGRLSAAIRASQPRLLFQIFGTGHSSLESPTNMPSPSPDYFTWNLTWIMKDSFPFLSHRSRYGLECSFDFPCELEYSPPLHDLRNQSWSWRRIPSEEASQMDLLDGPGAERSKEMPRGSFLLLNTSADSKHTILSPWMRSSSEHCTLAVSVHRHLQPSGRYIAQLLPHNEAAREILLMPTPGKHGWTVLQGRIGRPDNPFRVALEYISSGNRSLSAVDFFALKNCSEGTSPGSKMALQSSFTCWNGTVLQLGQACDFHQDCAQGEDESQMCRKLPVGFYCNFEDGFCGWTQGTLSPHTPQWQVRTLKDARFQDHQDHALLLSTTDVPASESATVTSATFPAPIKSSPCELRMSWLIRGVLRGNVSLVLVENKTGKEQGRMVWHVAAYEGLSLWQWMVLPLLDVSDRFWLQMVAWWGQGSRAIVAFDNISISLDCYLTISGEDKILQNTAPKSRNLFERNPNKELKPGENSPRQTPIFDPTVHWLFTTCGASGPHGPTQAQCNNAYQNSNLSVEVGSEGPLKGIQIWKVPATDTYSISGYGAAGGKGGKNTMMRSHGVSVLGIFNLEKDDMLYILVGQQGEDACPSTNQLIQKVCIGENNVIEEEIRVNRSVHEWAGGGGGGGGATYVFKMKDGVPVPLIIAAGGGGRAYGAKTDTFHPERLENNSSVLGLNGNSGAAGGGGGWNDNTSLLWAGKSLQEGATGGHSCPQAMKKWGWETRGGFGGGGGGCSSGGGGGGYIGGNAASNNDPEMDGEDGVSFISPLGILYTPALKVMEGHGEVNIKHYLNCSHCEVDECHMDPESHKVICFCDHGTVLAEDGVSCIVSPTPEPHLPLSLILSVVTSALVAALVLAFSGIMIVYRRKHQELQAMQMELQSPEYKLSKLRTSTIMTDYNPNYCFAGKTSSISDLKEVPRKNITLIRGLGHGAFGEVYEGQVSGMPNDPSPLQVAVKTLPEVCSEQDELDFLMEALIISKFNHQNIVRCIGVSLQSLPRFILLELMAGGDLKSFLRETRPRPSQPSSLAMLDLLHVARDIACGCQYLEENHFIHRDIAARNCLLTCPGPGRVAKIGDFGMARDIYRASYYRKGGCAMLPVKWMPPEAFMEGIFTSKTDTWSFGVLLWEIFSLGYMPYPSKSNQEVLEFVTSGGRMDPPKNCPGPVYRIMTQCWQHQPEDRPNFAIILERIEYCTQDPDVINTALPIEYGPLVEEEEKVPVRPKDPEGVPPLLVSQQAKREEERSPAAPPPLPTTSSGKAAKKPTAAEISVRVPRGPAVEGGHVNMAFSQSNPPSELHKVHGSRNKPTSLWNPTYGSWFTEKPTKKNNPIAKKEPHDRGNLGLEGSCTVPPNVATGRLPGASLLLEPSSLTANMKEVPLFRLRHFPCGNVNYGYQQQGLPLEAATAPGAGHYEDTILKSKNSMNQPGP
# Where a name gives a salt, the structure may show the parent alone. This is one part of the list. Hit calls seldom repeat between salt and free forms of one compound.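 In K562 cells expressing nanoluciferase-fused kinases, luminescence was recorded at 4 h intervals between 2 and 18 h, normalized as percent of control with DMSO at 100% and a positive control at 0%. A significant (2 sigma) signal drop marks a time point as decreased. The authors' rule for a hit is not shown and takes in more than the number of time points.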
# Target: ALK (UniProt Q9UM73)
# Assay: number of time points (of 5) at which kinase-Nluc abundance scored as decreased, DMSO-normalised (count); higher = more persistent destabilization
# Conditions: K562; 2-18 h
row,SMILES,number of time points
1,C[C@@H]1CCN(C(=O)CC#N)C[C@@H]1N(C)c1ncnc2[nH]ccc12 [Tofacitinib] (10 µM),0
2,CC#CC(=O)N1CC[C@@H](n2c(=O)n(-c3ccc(Oc4ccccc4)cc3)c3c(N)ncnc32)C1 [Tirabrutinib (hydrochloride)] (10 µM),0
3,Cc1ccc(C(=O)Nc2ccc(Oc3cc4cnn(C)c4cc3-c3cn[nH]c3)c(F)c2)c(=O)n1-c1ccc(F)cc1 [Merestinib] (2.5 µM),0
4,Cc1cc(Nc2ncnc3ccc(NC4=NC(C)(C)CO4)cc23)ccc1Oc1ccn2ncnc2c1 [Tucatinib (hemiethanolate)] (2.5 µM),0
5,C[C@@]1(c2ncncc2F)NC(=O)c2cc(-c3cn[nH]c3)ccc21 (10 µM),0
6,COc1cc(Nc2ncc(F)c(Nc3ccc4c(n3)NC(=O)C(C)(C)O4)n2)cc(OC)c1OC (10 µM),0
7,Cc1cc2ncc(-c3ccc(O)c(O)c3)nc2cc1C [Tyrphostin AG1433] (10 µM),0
8,Cc1cc(Nc2ncnc3ccc(NC4=NC(C)(C)CO4)cc23)ccc1Oc1ccn2ncnc2c1 [Tucatinib] (2.5 µM),0
9,Cn1nccc1Nc1nccc(-c2ccn([C@H](CO)c3ccc(Cl)c(F)c3)c(=O)c2)n1 [Ravoxertinib hydrochloride] (10 µM),0
10,COc1cc2c(N3CCN(C(=O)Nc4ccc(OC(C)C)cc4)CC3)ncnc2cc1OCCCN1CCCCC1 [Tandutinib] (10 µM),0
11,CC#CC(=O)N1CC[C@@H](n2c(=O)n(-c3ccc(Oc4ccccc4)cc3)c3c(N)ncnc32)C1 [Tirabrutinib] (10 µM),0
12,COc1cc(Nc2ncc(F)c(Nc3ccc4c(n3)N(COP(=O)(O)O)C(=O)C(C)(C)O4)n2)cc(OC)c1OC [Fostamatinib Disodium] (10 µM),0
13,COc1cc2c(N3CCN(C(=O)Nc4ccc(OC(C)C)cc4)CC3)ncnc2cc1OCCCN1CCCCC1 [Tandutinib (hydrochloride)] (10 µM),0
14,COc1cc(Nc2ncc(F)c(Nc3ccc4c(n3)N(COP(=O)(O)O)C(=O)C(C)(C)O4)n2)cc(OC)c1OC [Fostamatinib (disodium hexahydrate)] (10 µM),0
15,COc1cc2nccc(Oc3ccc(NC(=O)NC4CC4)c(Cl)c3)c2cc1C(N)=O [Lenvatinib (mesylate)] (10 µM),0
16,Oc1ccc(Nc2nc(-c3ccc(Cl)cc3)cs2)cc1 (10 µM),0
17,NC(=O)c1nc(Nc2ccccc2)sc1NC(=O)C1CCCCC1 (10 µM),0
18,CC1=C(C(=O)O)N2C(=O)[C@@H](NC(=O)[C@H](N)C3=CCC=CC3)[C@H]2SC1 [Cephradine] (10 µM),0
19,Cc1ccc(C(=O)Nc2ccc(Oc3cc4cnn(C)c4cc3-c3cn[nH]c3)c(F)c2)c(=O)n1-c1ccc(F)cc1 [Merestinib dihydrochloride] (2.5 µM),0
20,CC(=O)NC1CC(n2cnc(NC(=O)Cc3ccc4ccccc4c3)c2)C1 (stereo not given) (10 µM),0
21,COc1cc2nccc(Oc3ccc(NC(=O)NC4CC4)c(Cl)c3)c2cc1C(N)=O [Lenvatinib] (10 µM),0
22,Cn1cnc2c(F)c(Nc3ccc(Br)cc3Cl)c(C(=O)NOCCO)cc21 [Selumetinib (sulfate)] (10 µM),0
23,CCN1CCN(Cc2ccc(Nc3ncc(F)c(-c4cc(F)c5nc(C)n(C(C)C)c5c4)n3)nc2)CC1 [Abemaciclib] (2 µM),0
24,C[C@@H]1CCN(C(=O)CC#N)C[C@@H]1N(C)c1ncnc2[nH]ccc12 [Tofacitinib (citrate)] (10 µM),0
25,Cn1nccc1Nc1nccc(-c2ccn([C@H](CO)c3ccc(Cl)c(F)c3)c(=O)c2)n1 [Ravoxertinib] (10 µM),0
26,COc1cc(Nc2ncc(F)c(Nc3ccc4c(n3)NC(=O)C(C)(C)O4)n2)cc(OC)c1OC [R406 (free base)] (10 µM),0
27,S=C(SSC(=S)N1CCOCC1)N1CCOCC1 (10 µM),0
28,CC1CCc2c(cc(Br)c(F)c2Br)N1C=O (stereo not given) (10 µM),0
29,Cc1[nH]c(/C=C2\C(=O)Nc3ccccc32)c(C)c1CCC(=O)O [(Z)-Orantinib] (10 µM),0
30,CCN1CCN(Cc2ccc(Nc3ncc(F)c(-c4cc(F)c5nc(C)n(C(C)C)c5c4)n3)nc2)CC1 [Abemaciclib (methanesulfonate)] (10 µM),0

# Individual results from the entries so far.
# In number of time points, Cn1cnc2c(F)c(Nc3ccc(Br)cc3Cl)c(C(=O)NOCCO)cc21 [Selumetinib (sulfate)] (10 µM) shows 0
# In number of time points, CC#CC(=O)N1CC[C@@H](n2c(=O)n(-c3ccc(Oc4ccccc4)cc3)c3c(N)ncnc32)C1 [Tirabrutinib (hydrochloride)] (10 µM) shows 0
